These results are taken from PMC11558545, “Mechanistic Insights into the Function of 14-3-3 Proteins as Negative Regulators of Brassinosteroid Signaling in Arabidopsis” (Plant and Cell Physiology, 2024).

Results are given in words; binding and its absence hold for the method and conditions named.

In test [1] the target is T1, 14-3-3 λ^R136L/Y137F (Arabidopsis thaliana) (UniProt P48349).
T1 sequence: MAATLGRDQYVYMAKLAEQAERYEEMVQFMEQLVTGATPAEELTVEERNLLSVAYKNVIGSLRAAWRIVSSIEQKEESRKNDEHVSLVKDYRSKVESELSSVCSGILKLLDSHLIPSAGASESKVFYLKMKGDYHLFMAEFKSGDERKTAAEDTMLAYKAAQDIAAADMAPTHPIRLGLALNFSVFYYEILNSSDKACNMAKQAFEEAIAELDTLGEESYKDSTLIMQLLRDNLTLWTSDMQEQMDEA
Put plainly: condition: 600 μM peptide injected into 50 μM 14-3-3; ITC; Nano ITC, 25°C, 25 mM Hepes pH 7.0, 50 mM KCl; 600 μM peptide or phosphopeptide injected into 50 μM 14-3-3 protein in the cell, 25 injections; both purified.

Test [2] has as its target T2, Arabidopsis 14-3-3 isoform kappa (At14-3-3-κ^1−248) (Arabidopsis thaliana) (UniProt P48348).
T2 sequence: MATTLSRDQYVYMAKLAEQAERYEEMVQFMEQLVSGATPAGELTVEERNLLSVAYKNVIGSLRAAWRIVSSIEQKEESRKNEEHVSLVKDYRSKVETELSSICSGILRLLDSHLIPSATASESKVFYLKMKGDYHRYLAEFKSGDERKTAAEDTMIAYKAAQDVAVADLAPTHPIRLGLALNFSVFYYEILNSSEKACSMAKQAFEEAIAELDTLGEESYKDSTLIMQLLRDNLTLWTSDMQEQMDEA
Described as above.

Test [3] has as its target T3, Arabidopsis 14-3-3 isoform kappa (At14-3-3-κ^1−248) (Arabidopsis thaliana), P48348.
T3 chain: T2 sequence
Put plainly: ITC; 14-3-3κ versus purified globular domains of BR signaling components (BRI1, BAK1 and BSK1 after auto-/transphosphorylation); Nano ITC, 25°C, 25 mM Hepes pH 7.0, 50 mM KCl; both purified. The settings on record: remark: other sources report otherwise.

In test [4] the target is T2, Arabidopsis 14-3-3 isoform kappa (At14-3-3-κ^1−248) (Arabidopsis thaliana). Described as above.

RISNSAP (phosphoserine at Ser173 (RISNpSAP)) [pBZR1^169−175 peptide]: the binding entry in test [1] is “no binding”. Turning to KEALSIN [BRI1^851−860 peptide], in test [2], the binding result is recorded as “no binding”.

B1: BRI1^814−1196 cytoplasmic domain, after incubation with the BAK1^250−615 cytoplasmic domain, O22476 814-1196 (domain or fragment)
chain: GREMRKRRRKKEAELEMYAEGHGNSGDRTANNTNWKLTGVKEALSINLAAFEKPLRKLTFADLLQATNGFHNDSLIGSGGFGDVYKAILKDGSAVAIKKLIHVSGQGDREFMAEMETIGKIKHRNLVPLLGYCKVGDERLLVYEFMKYGSLEDVLHDPKKAGVKLNWSTRRKIAIGSARGLAFLHHNCSPHIIHRDMKSSNVLLDENLEARVSDFGMARLMSAMDTHLSVSTLAGTPGYVPPEYYQSFRCSTKGDVYSYGVVLLELLTGKRPTDSPDFGDNNLVGWVKQHAKLRISDVFDPELMKEDPALEIELLQHLKVAVACLDDRAWRRPTMVQVMAMFKEIQAGSGIDSQSTIRSIEDGGFSTIEMVDMSIKEVPEGKL
modifications: here or on the partner: auto- and transphosphorylated by incubation with BAK1^250−615; sites not given
With B1, the binding entry in test [3] is on record as “no binding”. As for RGELFSAPASMRTSPTNSGH [BKI1^265−284 peptide], in test [2], the binding result is recorded as “no binding”.

B2: BIN2 (residues 7–380) expressed in Escherichia coli (enzyme, UniProt Q39011 7-380)
chain: MPAAVVDGHDQVTGHIISTTIGGKNGEPKQTISYMAERVVGTGSFGIVFQAKCLETGETVAIKKVLQDRRYKNRELQLMRVMDHPNVVCLKHCFFSTTSKDELFLNLVMEYVPESLYRVLKHYSSANQRMPLVYVKLYMYQIFRGLAYIHNVAGVCHRDLKPQNLLVDPLTHQVKICDFGSAKQLVKGEANISYICSRFYRAPELIFGATEYTTSIDIWSAGCVLAELLLGQPLFPGENAVDQLVEIIKVLGTPTREEIRCMNPHYTDFRFPQIKAHPWHKIFHKRMPPEAIDFASRLLQYSPSLRCTALEACAHPFFDELREPNARLPNGRPFPPLFNFKQEVAGSSPELVNKLIPDHIKRQLGLSFLNQSGT
On to B2, for which, in test [4], the binding result is on record as “no binding”.

B3: BIN2 (residues 7–380) expressed in insect cells (enzyme, UniProt Q39011 7-380)
chain: B2 chain
B3: in test [4], the binding entry is “no binding”.

Consider KEALSIN (phosphoserine at Ser858 (KEALpSIN)) [pBRI1^851−860 peptide], for which the binding entry in test [2] was “no binding”.

On to RKLTFA (phosphothreonine at Thr872 (RKLpTFA)) [pBRI1^869−874 peptide], for which the binding entry in test [1] is listed as “no binding”. RGELFSAP (phosphoserine at Ser270 (RGELFpSAP)) [pBKI1^265−272 peptide]: in test [1], the binding result is “no binding”.
